Data taken from publication PMC4507021.
Results are given in words; binding and its absence hold for the method and conditions named.

Chains of the proteins cited; added tags and fusions are not shown.
UniProt Q8I719: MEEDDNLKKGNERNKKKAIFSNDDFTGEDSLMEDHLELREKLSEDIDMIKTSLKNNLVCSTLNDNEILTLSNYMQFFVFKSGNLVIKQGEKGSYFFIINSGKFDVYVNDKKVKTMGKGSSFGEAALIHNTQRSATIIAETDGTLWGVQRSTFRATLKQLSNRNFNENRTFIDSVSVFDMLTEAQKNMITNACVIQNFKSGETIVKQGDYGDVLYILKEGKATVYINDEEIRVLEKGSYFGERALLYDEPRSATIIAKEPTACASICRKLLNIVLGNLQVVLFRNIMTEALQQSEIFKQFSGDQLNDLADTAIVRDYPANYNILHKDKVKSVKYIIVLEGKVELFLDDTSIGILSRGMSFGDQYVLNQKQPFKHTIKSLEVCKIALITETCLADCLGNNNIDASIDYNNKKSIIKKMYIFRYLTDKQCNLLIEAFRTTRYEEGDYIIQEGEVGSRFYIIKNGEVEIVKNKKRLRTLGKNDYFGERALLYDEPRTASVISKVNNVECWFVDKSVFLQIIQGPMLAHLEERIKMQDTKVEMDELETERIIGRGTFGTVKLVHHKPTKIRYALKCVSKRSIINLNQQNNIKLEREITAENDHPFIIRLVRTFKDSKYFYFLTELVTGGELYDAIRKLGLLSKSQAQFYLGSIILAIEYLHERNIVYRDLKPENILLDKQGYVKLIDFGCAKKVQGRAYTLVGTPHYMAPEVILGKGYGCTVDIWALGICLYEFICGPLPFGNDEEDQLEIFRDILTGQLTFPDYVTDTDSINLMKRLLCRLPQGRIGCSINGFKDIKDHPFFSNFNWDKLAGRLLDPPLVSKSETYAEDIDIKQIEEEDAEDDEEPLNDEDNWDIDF
UniProt P62344: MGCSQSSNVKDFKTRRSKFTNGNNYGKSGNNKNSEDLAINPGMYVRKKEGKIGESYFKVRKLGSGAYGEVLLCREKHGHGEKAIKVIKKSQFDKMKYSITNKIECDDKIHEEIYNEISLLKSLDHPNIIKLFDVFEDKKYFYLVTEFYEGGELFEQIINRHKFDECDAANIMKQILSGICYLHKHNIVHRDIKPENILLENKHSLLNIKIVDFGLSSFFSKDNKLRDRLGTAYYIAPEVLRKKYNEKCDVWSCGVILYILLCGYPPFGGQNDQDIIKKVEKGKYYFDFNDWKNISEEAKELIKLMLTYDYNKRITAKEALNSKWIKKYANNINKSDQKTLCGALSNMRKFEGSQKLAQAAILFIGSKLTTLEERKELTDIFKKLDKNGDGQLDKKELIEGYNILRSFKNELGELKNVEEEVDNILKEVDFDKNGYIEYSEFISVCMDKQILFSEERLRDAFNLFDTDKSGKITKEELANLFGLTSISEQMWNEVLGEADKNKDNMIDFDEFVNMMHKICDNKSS

How the values were obtained:
[1] = target: P. falciparum cGMP-dependent protein kinase, PfPKG (Plasmodium falciparum (endogenous in cultured parasites)) (UniProt Q8I719); assay: SEC; late schizont lysate (TEG buffer, 0.1% NP-40, sonicated) on Superdex 200 (10 x 300 mm) in 50 mM Tris-HCl, 0.15 M NaCl, 20 mM beta-glycerol phosphate, pH 7.4, 4 °C; 1 ml fractions probed by western blot; parasites treated with vehicle or Compound 2 (2 uM, 3 h, with E-64)
[2] = target: HA-tagged PfCDPK1 (Plasmodium falciparum calcium-dependent protein kinase 1) (Plasmodium falciparum 3D7) (UniProt P62344); assay: as above

P. falciparum cGMP-dependent protein kinase, PfPKG (from UniProt Q8I719 1-853) (enzyme)
binding [1]: no binding | binding [2]: no binding
